US4900730A, “Preparation which promotes the absorption of peptides” (priority 1981, dated 1990)

Experiment: Rectal circulation with fatty acids as promoters (Example 15, Example 1 repeated)
Settings: Table 9, fatty acid 0.1 W/V %
Description: Absorption effects under conditions with various tonicities were examined.
The experiment was conducted in the following manner.
(The units in the Table are percents.)

medicine disappeared by absorption, Osmotic pressure X 1 (X 1): 7.7 percents
medicine disappeared by absorption, Osmotic pressure X 4 (X 4): 14.4 percents
Compound: CC(C)CC(=O)O [Isovaleric acid, isovaleric acid]
